Reference: PubChem BioAssay (NCATS)
The inconclusive results got no clear call from the source; some entries with a clear call stand among them for comparison. For some of these results: A potency beside an inconclusive call is a rough fit, not a confirmed value. Active and inactive are the calls of the source. Calls come from the whole dose curve; as a rule, active = well fitted curve in the direction sought with a large enough effect; inconclusive = small, poorly fitted or top-dose-only effect, or another doubt; inactive = no such curve, though single readings can be large; an effect the other way counts as inactive or inconclusive.

Legend:
[1] = Quantitative High-Throughput drug screen in 47 multiple myeloma cell lines against the NCATS MIPE library collection: KMS20_JCRB cell viability assay (AID 1918973); details: CellTiter-Glo ATP, 48 h; viability (% of DMSO): at 45.8 µM (top of the series); note: nearly all actives have a fitted effect of over 45% in size
Summary of the method: (§1)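 qHTS of the MIPE 4.0 collection: 500 myeloma cells/well, 48 h drug exposure at 37C in 5% CO2, then CellTiter-Glo for 5 min at room temperature before luminescence reading.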

[2] = Quantitative High-Throughput drug screen in 47 multiple myeloma cell lines against the NCATS MIPE library collection: KMS21BM_JCRB cell viability assay (AID 1918974); details: ATP luminescence, 48 h; viability: at 45.8 µM (top of the series) unless noted
Summary of the method: as §1

[3] = Quantitative High-Throughput drug screen in 47 multiple myeloma cell lines against the NCATS MIPE library collection: NCIH929_DSMZ cell viability assay (AID 1918978); note: nearly all actives have a fitted effect of over 35% in size
Summary of the method: (§2)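 Cells were exposed to library compounds for 48 hours, after which ATP was measured by CellTiter-Glo. Signal was taken as median relative luminescence units.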

[4] = Quantitative High-Throughput drug screen in 47 multiple myeloma cell lines against the NCATS MIPE library collection: OCIMY1_PLB cell viability assay (AID 1918979); details: OCI-MY1 myeloma viability, CellTiter-Glo ATP, 48 h; viability: at 45.8 µM (top of the series) unless noted; note: nearly all actives have a fitted effect of over 35% in size
Summary of the method: as §2

[5] = Quantitative High-Throughput drug screen in 47 multiple myeloma cell lines against the NCATS MIPE library collection: MM1S_ATCC cell viability assay (AID 1918980); note: nearly all actives have a fitted effect of over 45% in size
Summary of the method: as §2

[6] = Quantitative High-Throughput drug screen in 47 multiple myeloma cell lines against the NCATS MIPE library collection: MM1R_ATCC cell viability assay (AID 1918981); note: nearly all actives have a fitted effect of over 35% in size
Summary of the method: as §2

[7] = Quantitative High-Throughput drug screen in 47 multiple myeloma cell lines against the NCATS MIPE library collection: LP1_DSMZ cell viability assay (AID 1918982); details: LP1 myeloma viability, CellTiter-Glo ATP luminescence, 48 h; viability (% of control): at 45.8 µM (top of the series); note: nearly all actives have a fitted effect of over 35% in size
Summary of the method: as §2

[8] = Quantitative High-Throughput drug screen in 47 multiple myeloma cell lines against the NCATS MIPE library collection: L363_DSMZ cell viability assay (AID 1918984); details: L363 myeloma viability, CellTiter-Glo ATP luminescence, 48 h; viability (% of control): at 45.8 µM (top of the series); note: nearly all actives have a fitted effect of over 40% in size
Summary of the method: as §2

[9] = Quantitative High-Throughput drug screen in 47 multiple myeloma cell lines against the NCATS MIPE library collection: OCIMY7_PLB cell viability assay (AID 1918987); details: OCI-MY7 myeloma viability, CellTiter-Glo ATP, 48 h; viability (% of DMSO): at 45.8 µM (top of the series); note: nearly all actives have a fitted effect of over 65% in size
Summary of the method: as §2

[10] = Quantitative High-Throughput drug screen in 47 multiple myeloma cell lines against the NCATS MIPE library collection: OCIMY5_PLB cell viability assay (AID 1918988); details: OCI-MY5 myeloma viability, ATP luminescence, 48 h; series mostly up to 45.8 µM; note: nearly all actives have a fitted effect of over 65% in size
Summary of the method: as §2

[11] = Quantitative High-Throughput drug screen in 47 multiple myeloma cell lines against the NCATS MIPE library collection: SKMM1_PLB cell viability assay (AID 1919863); details: SKMM1 myeloma viability, CellTiter-Glo ATP, 48 h; viability: active compounds read low; note: nearly all actives have a fitted effect of over 35% in size
Summary of the method: as §2

[12] = Quantitative High-Throughput drug screen in 47 multiple myeloma cell lines against the NCATS MIPE library collection: XG6_PLB cell viability assay (AID 1919865); details: XG6 myeloma viability, CellTiter-Glo ATP luminescence, 48 h; viability (% of control): at 45.8 µM (top of the series); note: nearly all actives have a fitted effect of over 40% in size
Summary of the method: as §2

[13] = Quantitative High-Throughput drug screen in 47 multiple myeloma cell lines against the NCATS MIPE library collection: XG1_PLB cell viability assay (AID 1919866); details: CellTiter-Glo ATP, 48 h; viability: at 45.8 µM (top of the series); note: nearly all actives have a fitted effect of over 35% in size
Summary of the method: as §2

[14] = Quantitative High-Throughput drug screen in 47 multiple myeloma cell lines against the NCATS MIPE library collection: MOLP8_DSMZ cell viability assay (AID 1918977); details: MOLP8 myeloma viability, CellTiter-Glo ATP luminescence, 48 h; viability (% of control): at 45.8 µM (top of the series); note: nearly all actives have a fitted effect of over 45% in size
Summary of the method: as §2

[15] = Quantitative High-Throughput drug screen in 47 multiple myeloma cell lines against the NCATS MIPE library collection: OPM1_PLB cell viability assay (AID 1918989); note: nearly all actives have a fitted effect of over 40% in size
Summary of the method: as §2

[16] = Quantitative High-Throughput drug screen in 47 multiple myeloma cell lines against the NCATS MIPE library collection: KMS28PE_JCRB cell viability assay (AID 1918983); note: nearly all actives have a fitted effect of over 35% in size
Summary of the method: as §2

[17] = Quantitative High-Throughput drug screen in 47 multiple myeloma cell lines against the NCATS MIPE library collection: KMS26_JCRB cell viability assay (AID 1918975); details: KMS26 myeloma cells viability, CellTiter-Glo ATP, 48 h; viability (% of DMSO): at 45.8 µM (top of the series); note: nearly all actives have a fitted effect of over 45% in size
Summary of the method: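 Steps: seed 500 cells per well; pin-transfer MIPE 4.0 library; incubate 48 h at 37C, 5% CO2, humidified; add CellTiter-Glo, 5 min room temperature; read luminescence.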

[18] = Quantitative High-Throughput drug screen in 47 multiple myeloma cell lines against the NCATS MIPE library collection: MMM1_PLB cell viability assay (AID 1918976); note: nearly all actives have a fitted effect of over 35% in size
Summary of the method: as §2

[19] = Quantitative High-Throughput drug screen in 47 multiple myeloma cell lines against the NCATS MIPE library collection: KMS34_JCRB cell viability assay (AID 1918985); details: KMS34 myeloma viability, CellTiter-Glo ATP luminescence, 48 h; series mostly up to 45.8 µM; note: nearly all actives have a fitted effect of over 40% in size
Summary of the method: as §2

Measured: Potency
Potency is the fitted concentration of half-maximal effect.

CC1(C)CC(=O)c2c(C(F)(F)F)nn(-c3ccc(C(N)=O)c(NC4CCC(O)CC4)c3)c2C1 (centres undefined)
active: [1] 0.0935 µM | [3] 0.105 µM | [4] 0.235 µM | [5] 0.148 µM | [6] 0.118 µM | [9] 0.0662 µM | [10] 0.118 µM | [11] 0.187 µM
inconclusive: [2] 0.0132 µM [rising, full curve, poor fit] | [7] 0.105 µM [cytotoxic, full curve] | [8] 0.0059 µM [cytotoxic, full curve, poor fit] | [12] 0.332 µM [cytotoxic, full curve] | [13] 0.105 µM [cytotoxic, full curve]

C=CC(=O)N1CCc2ccc(-n3c(=O)ccc4cnc5ccc(-c6cnn(C)c6)cc5c43)cc21
inconclusive: [2] 18.7 µM [rising, partial curve, poor fit]
active: [1] 0.833 µM | [14] 0.59 µM | [15] 0.833 µM

Nc1ccc(C(=O)c2cc3c(ccc4ccccc43)[nH]2)cc1
active: [7] 5.26 µM | [16] 9.35 µM
inconclusive: [1] 5.26 µM [cytotoxic, partial curve, poor fit] | [2] 37.2 µM [rising, partial curve, poor fit] | [14] 0.833 µM [cytotoxic, full curve, poor fit] | [4] 4.69 µM [cytotoxic, full curve] | [5] 14.8 µM [cytotoxic, partial curve, poor fit] | [6] 14.8 µM [cytotoxic, partial curve] | [8] 0.209 µM [cytotoxic, full curve, poor fit]

Nc1cccc2c1CN(C1CCC(=O)NC1=O)C2=O (centres undefined)
inconclusive: [1] 0.855 µM [cytotoxic, full curve, poor fit] | [3] 0.855 µM [cytotoxic, full curve] | [4] 17.1 µM [cytotoxic, partial curve, poor fit] | [5] 38.2 µM [cytotoxic, partial curve] | [6] 1.91 µM [cytotoxic, full curve, poor fit] | [7] 0.855 µM [cytotoxic, partial curve, poor fit] | [8] 0.0027 µM [rising, full curve, poor fit]
active: [17] 0.605 µM | [18] 0.429 µM | [13] 3.03 µM
inactive: [14] | [19] | [10] | [15] | [12]

C=CC[C@@H]1C=C(C)C[C@H](C)C[C@H](OC)[C@H]2O[C@@](O)(C(=O)C(=O)N3CCCC[C@H]3C(=O)O[C@H](C(C)=C[C@@H]3CC[C@H](O)[C@H](OC)C3)[C@@H](C)[C@@H](O)CC1=O)[C@@H](C)C[C@@H]2OC
active: [5] 1.18 µM | [19] 1.48 µM
inconclusive: [1] 1.18 µM [cytotoxic, full curve, poor fit] | [2] 1.48 µM [cytotoxic, full curve, poor fit]

O=C(c1ccc(C=Cc2n[nH]c3ccccc23)cc1)N1CCNCC1
active: [1] 1.87 µM | [2] 0.59 µM | [14] 16.6 µM | [6] 13.2 µM | [19] 10.5 µM | [10] 14.8 µM | [12] 14.8 µM
inconclusive: [7] 16.6 µM [cytotoxic, partial curve] | [11] 20.9 µM [cytotoxic, partial curve, poor fit]

Nothing new here: 2 of the compounds above.
C=CC[C@@H]1C=C(C)C[C@H](C)C[C@H](OC)[C@H]2O[C@@](O)(C(=O)C(=O)N3CCCC[C@H]3C(=O)O[C@H](C(C)=C[C@@H]3CC[C@H](O)[C@H](OC)C3)[C@@H](C)[C@@H](O)CC1=O)[C@@H](C)C[C@@H]2OC
active: [5] 1.18 µM | [19] 1.48 µM
inconclusive: [1] 1.18 µM [cytotoxic, full curve, poor fit] | [2] 1.48 µM [cytotoxic, full curve, poor fit]

O=C(c1ccc(C=Cc2n[nH]c3ccccc23)cc1)N1CCNCC1
active: [1] 1.87 µM | [2] 0.59 µM | [14] 16.6 µM | [6] 13.2 µM | [19] 10.5 µM | [10] 14.8 µM | [12] 14.8 µM
inconclusive: [7] 16.6 µM [cytotoxic, partial curve] | [11] 20.9 µM [cytotoxic, partial curve, poor fit]

The list goes on.

C=CCc1cccc(C=NNC(=O)CN2CCN(Cc3ccccc3)CC2)c1O
active: [1] 20.9 µM | [14] 6.62 µM | [4] 8.33 µM | [5] 9.35 µM | [8] 6.62 µM | [19] 4.69 µM | [10] 7.43 µM
inconclusive: [2] 29.6 µM [rising, partial curve, poor fit] | [7] 11.8 µM [cytotoxic, partial curve] | [11] 11.8 µM [cytotoxic, partial curve]
